Test: Comparison with common methylene blue method: hydrogen sulfide concentrations in plasma
Set-up: species or system rat

Row | SMILES | hydrogen sulfide concentration in plasma (Myocardial infarction model) | hydrogen sulfide concentration in plasma (Normal rat)
1 | C1C[N]2CC[N]3CC[N]1[64Cu]23 [Example 20, ^64Cu-labeled TACN] | 41.8 | 23.6
2 | CN(C)c1ccc2nc3ccc(=[N+](C)C)cc-3sc2c1 [Methylene blue, reference compound] | 40.3 | 23.8

From patent US10583206B2, “Radioactive probe for detecting hydrogen sulfide” (KYUNGPOOK NATIONAL UNIVERSITY INDUSTRY-ACADEMIC COOPERATION …, priority 2015, dated 2020)
